# Data published in patent publication US9783578B2, “Immunosuppression modulating compounds” (AURIGENE DISCOVERY TECHNOLOGIES LIMITED, priority 2010, dated 2017).
# At least one peptide structure holds a part that was inferred or is arguable (an end, a ring closure or a residue).
# Test system: mouse splenocytes inhibited by MDA-MB-231 tumour cells expressing PD-L1
# Experiment: Mouse splenocyte proliferation rescue, CFSE method
# Assay type: cell-based
# Conditions: screened at 100 nm concentration and compared with 100 nm Comp 8
# Experimental: Mouse splenocytes harvested from 6-8 weeks old C57 BL6 mice.; RPMI 1640 (GIBCO, Cat #11875); DMEM with high glucose (GIBCO, Cat #D6429); Fetal Bovine Serum [Hyclone, Cat #SH30071.03]; Pencilin (10000 unit/ml)-Streptomycin(10,000 μg/ml) Liquid (GIBCO, Cat #15140-122); MEM Sodium Pyruvate solution 100 mM (100×), Liquid (GIBCO, Cat #11360); Nonessential amino acid (GIBCO, Cat #11140); L-Glutamine (GIBCO, Cat #25030); Anti-CD3 antibody (eBiosciences—16-0032); Anti-CD28 antibody (eBiosciences—16-0281); ACK lysis buffer (1 mL) (GIBCO, Cat #-A10492); Histopaque (density—1.083 gm/ml) (SIGMA 10831); Trypan blue solution (SIGMA-T8154); Hemacytometer (Bright line-SIGMA Z359629); FACS Buffer (PBS/0.1% BSA): Phosphate Buffered Saline (PBS) pH 7.2 (HiMedia TS1006) with 0.1% Bovine Serum Albumin (BSA) (SIGMA A7050) and sodium azide (SIGMA 08591); 5 mM stock solution of CFSE: CFSE stock solution was prepared by diluting lyophilized CFSE with 180 μL of Di methyl Sulfoxide (DMSO C2H6SO, SIGMA-D-5879) and aliquoted in to tubes for further use. Working concentrations were titrated from 10 μM to 1 μM. […]
# Tumour cells (MDMBA231) are cultured and maintained in high glucose complete DMEM media. […] Cells were harvested and washed thrice with ice cold FACS buffer and % proliferation was analyzed using a FACS caliber with 488 nm excitation and 521 nm emission filters. […]
structure (smiles),measurement,value
"CC[C@@H](C)[C@@H](NC(=O)[C@@H](CCCCN)NC(=O)[C@H](N)CCC(=O)O)C(=O)N[C@H](CCC(N)=O)C(=O)N[C@H](C)C(=O)N[C@H](CCCCN)C(=O)N1CCC[C@@H]1C(=O)N[C@H](C)C(=O)N[C@H](CC(C)C)C(=O)N[C@H](CCC(N)=O)C(=O)N[C@@H](C(=O)N[C@@H](C(=O)N[C@H](CCCNC(=N)N)C(=O)N[C@H](Cc1ccccc1)C(=O)N[C@H](CCCCNC(=O)[C@@H](CO)NC(=O)[C@@H](CC(N)=O)NC(=O)[C@H](NC(=O)[C@@H](CO)NC(=O)[C@@H](CCC(=O)O)NC(=O)[C@@H](CO)NC(=O)[C@H](N)Cc1ccccc1)[C@H](C)O)C(=O)N[C@H](Cc1ccccc1)C(=O)N[C@H](CO)C(=O)N[C@H](CCC(=O)O)C(=O)N[C@H](CO)C(=O)N[C@@H](C(=O)N[C@H](CC(N)=O)C(=O)N[C@H](CO)C(N)=O)[C@H](C)O)C(C)C)[C@H](C)O [Compound 49, ekiqakpalqtvrfk(fsestns)fsestns-NH2]",Percent rescue for various compounds in mouse splenocyte proliferation CFSE based assay,73%
